The values below come from article PMC10465357.

These are yes or no findings as the source states them, for the method shown. In cells and extracts the contact can be indirect. Binding can be weak; no strength is given.

Sequences and labels used below:
B1: 14-3-3 protein YWHAQ (protein, UniProt P27348 1-245)
chain: MEKTELIQKAKLAEQAERYDDMATCMKAVTEQGAELSNEERNLLSVAYKNVVGGRRSAWRVISSIEQKTDTSDKKLQLIKDYREKVESELRSICTTVLELLDKYLIANATNPESKVFYLKMKGDYFRYLAEVACGDDRKQTIDNSQGAYQEAFDISKKEMQPTHPIRLGLALNFSVFYYEILNNPELACTLAKTAFDEAIAELDTLNEDSYKDSTLIMQLLRDNLTLWTSDSAGEECDAAEGAEN
B2: 14-3-3 protein YWHAH (protein, UniProt Q04917 1-246)
chain: MGDREQLLQRARLAEQAERYDDMASAMKAVTELNEPLSNEDRNLLSVAYKNVVGARRSSWRVISSIEQKTMADGNEKKLEKVKAYREKIEKELETVCNDVLSLLDKFLIKNCNDFQYESKVFYLKMKGDYYRYLAEVASGEKKNSVVEASEAAYKEAFEISKEQMQPTHPIRLGLALNFSVFYYEIQNAPEQACLLAKQAFDDAIAELDTLNEDSYKDSTLIMQLLRDNLTLWTSDQQDEEAGEGN
B3: 14-3-3 protein gamma (YWHAG) (protein, UniProt P61981 1-247)
chain: MVDREQLVQKARLAEQAERYDDMAAAMKNVTELNEPLSNEERNLLSVAYKNVVGARRSSWRVISSIEQKTSADGNEKKIEMVRAYREKIEKELEAVCQDVLSLLDNYLIKNCSETQYESKVFYLKMKGDYYRYLAEVATGEKRATVVESSEKAYSEAHEISKEHMQPTHPIRLGLALNYSVFYYEIQNAPEQACHLAKTAFDDAIAELDTLNEDSYKDSTLIMQLLRDNLTLWTSDQQDDDGGEGNN

The target of one test is UL32 (also known as pp150) (human cytomegalovirus (HCMV), strain TB40-BAC4). In words: cross-linking; XL-MS: intact extracellular HCMV TB40-BAC4 particles in PBS crosslinked with DSSO (2.5 mM twice, 30 min, 25 °C), quenched, virions purified on glycerol-tartrate gradients, LC-MS of crosslinked peptides, 1% FDR, n = 2 biological replicates.
Take B1: the binding result is given as “binds”.

In the case of B2, the binding entry is “binds”.

In the case of B3, the binding result is given as “binds”.

In the next test the target is UL99 (also known as pp28) (human cytomegalovirus (HCMV), strain TB40-BAC4). The test is described as above.
Regarding B1, the binding result is “binds”.

With B2, the binding entry is reported as “binds”.

In the case of B3, the binding entry is listed as “binds”.
